Laboratory results as given in doi:10.1101/2025.02.17.638751.
No constants are given. Whether binding was seen depends on the method and setting. In cells and extracts the contact can be indirect. These calls come from enrichment with a bait or labelling near it, and not all partners need be listed. For some of these results: No binding means not detected with the bait.

The chains behind the UniProt entries cited, without tags or fusion partners.
UniProt P08047: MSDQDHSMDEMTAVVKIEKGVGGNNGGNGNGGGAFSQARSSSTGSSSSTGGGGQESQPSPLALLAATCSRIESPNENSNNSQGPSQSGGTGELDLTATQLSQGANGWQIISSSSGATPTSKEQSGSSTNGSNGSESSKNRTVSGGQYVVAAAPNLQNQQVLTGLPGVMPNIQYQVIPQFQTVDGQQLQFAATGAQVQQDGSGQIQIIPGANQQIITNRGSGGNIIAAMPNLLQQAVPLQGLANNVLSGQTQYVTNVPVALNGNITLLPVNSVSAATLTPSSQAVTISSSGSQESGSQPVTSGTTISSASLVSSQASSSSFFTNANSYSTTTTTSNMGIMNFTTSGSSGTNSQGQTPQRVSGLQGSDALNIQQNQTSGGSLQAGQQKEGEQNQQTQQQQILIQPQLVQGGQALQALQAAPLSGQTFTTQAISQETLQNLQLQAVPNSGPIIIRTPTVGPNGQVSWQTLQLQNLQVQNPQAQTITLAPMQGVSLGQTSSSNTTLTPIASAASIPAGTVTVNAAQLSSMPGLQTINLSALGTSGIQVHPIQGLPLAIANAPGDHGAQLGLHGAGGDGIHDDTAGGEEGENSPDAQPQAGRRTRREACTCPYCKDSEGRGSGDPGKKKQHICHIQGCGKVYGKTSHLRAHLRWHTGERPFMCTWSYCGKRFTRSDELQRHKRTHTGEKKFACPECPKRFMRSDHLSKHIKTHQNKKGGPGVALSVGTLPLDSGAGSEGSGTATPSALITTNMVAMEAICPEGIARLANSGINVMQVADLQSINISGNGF
UniProt Q92830: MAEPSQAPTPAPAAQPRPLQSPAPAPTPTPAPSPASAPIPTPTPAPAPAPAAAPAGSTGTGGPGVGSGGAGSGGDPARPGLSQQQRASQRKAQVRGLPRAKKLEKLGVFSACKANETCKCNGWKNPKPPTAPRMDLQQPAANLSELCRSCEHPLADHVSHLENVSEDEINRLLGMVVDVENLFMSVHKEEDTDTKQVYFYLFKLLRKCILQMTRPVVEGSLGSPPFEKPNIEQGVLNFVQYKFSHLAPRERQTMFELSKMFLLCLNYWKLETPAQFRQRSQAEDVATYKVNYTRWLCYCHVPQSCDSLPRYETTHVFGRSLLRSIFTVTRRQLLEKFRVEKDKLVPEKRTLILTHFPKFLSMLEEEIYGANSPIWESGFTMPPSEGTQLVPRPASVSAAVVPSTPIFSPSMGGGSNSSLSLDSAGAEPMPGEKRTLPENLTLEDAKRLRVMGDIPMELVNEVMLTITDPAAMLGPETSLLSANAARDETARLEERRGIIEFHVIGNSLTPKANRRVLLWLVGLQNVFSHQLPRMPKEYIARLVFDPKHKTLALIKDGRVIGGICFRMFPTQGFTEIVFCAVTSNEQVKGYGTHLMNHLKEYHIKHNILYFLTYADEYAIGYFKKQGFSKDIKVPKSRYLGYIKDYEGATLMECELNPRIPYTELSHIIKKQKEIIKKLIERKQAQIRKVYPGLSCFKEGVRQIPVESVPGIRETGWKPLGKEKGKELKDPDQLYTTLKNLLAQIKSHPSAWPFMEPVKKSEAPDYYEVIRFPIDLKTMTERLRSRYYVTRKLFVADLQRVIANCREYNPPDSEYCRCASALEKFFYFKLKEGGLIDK
UniProt Q13422: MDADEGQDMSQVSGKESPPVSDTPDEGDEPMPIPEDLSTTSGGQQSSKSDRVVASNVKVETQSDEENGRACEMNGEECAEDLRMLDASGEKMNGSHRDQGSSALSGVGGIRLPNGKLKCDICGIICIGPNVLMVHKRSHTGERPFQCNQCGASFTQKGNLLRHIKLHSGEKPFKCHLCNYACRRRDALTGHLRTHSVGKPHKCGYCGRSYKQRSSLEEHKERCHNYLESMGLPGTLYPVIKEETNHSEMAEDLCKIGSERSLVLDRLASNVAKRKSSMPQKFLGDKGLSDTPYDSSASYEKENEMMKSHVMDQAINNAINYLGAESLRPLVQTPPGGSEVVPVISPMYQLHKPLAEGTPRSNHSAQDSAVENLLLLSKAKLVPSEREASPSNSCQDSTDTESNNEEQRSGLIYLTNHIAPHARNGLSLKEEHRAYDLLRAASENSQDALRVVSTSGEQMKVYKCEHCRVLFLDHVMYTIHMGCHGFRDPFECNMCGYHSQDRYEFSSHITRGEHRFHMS
UniProt Q9UKS7: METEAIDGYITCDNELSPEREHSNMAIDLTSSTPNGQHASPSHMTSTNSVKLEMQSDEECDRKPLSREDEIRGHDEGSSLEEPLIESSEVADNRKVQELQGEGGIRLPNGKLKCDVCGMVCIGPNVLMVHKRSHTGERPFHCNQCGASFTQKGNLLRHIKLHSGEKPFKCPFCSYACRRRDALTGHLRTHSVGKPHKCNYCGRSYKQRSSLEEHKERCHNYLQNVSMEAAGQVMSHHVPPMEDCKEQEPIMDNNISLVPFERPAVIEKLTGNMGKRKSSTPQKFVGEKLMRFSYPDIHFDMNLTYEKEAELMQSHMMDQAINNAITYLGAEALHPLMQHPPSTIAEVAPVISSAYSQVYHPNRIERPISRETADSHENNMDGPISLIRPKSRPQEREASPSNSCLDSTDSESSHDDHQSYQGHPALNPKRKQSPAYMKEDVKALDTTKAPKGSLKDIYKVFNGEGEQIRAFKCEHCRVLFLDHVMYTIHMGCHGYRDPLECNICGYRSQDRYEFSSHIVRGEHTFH
UniProt Q9UKT9: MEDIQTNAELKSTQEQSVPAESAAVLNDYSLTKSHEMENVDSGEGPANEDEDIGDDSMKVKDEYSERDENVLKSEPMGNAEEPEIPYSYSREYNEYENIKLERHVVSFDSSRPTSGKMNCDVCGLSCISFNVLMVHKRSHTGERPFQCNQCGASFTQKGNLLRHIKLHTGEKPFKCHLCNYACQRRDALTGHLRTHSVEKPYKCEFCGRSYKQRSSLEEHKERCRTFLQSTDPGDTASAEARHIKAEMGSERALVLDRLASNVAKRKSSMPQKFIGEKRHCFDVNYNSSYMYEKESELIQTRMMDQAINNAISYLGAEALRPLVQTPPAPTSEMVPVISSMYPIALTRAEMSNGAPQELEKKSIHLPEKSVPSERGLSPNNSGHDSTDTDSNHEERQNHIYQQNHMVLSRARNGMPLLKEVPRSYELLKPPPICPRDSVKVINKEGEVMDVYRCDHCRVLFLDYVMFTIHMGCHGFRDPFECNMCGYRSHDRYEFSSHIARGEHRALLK

B1: ZZZ3 (protein, UniProt Q8IYH5 1-903)
chain: MAASRSTRVTRSTVGLNGLDESFCGRTLRNRSIAHPEEISSNSQVRSRSPKKRPEPVPIQKGNNNGRTTDLKQQSTRESWVSPRKRGLSSSEKDNIERQAIENCERRQTEPVSPVLKRIKRCLRSEAPNSSEEDSPIKSDKESVEQRSTVVDNDADFQGTKRACRCLILDDCEKREIKKVNVSEEGPLNSAVVEEITGYLAVNGVDDSDSAVINCDDCQPDGNTKQNSIGSYVLQEKSVAENGDTDTQTSMFLDSRKEDSYIDHKVPCTDSQVQVKLEDHKIVTACLPVEHVNQLTTEPATGPFSETQSSLRDSEEEVDVVGDSSASKEQCKENTNNELDTSLESMPASGEPEPSPVLDCVSAQMMSLSEPQEHRYTLRTSPRRAAPTRGSPTKNSSPYRENGQFEENNLSPNETNATVSDNVSQSPTNPGEISQNEKGICCDSQNNGSEGVSKPPSEARLNIGHLPSAKESASQHITEEEDDDPDVYYFESDHVALKHNKDYQRLLQTIAVLEAQRSQAVQDLESLGRHQREALKNPIGFVEKLQKKADIGLPYPQRVVQLPEIVWDQYTHSLGNFEREFKNRKRHTRRVKLVFDKVGLPARPKSPLDPKKDGESLSYSMLPLSDGPEGSSSRPQMIRGRLCDDTKPETFNQLWTVEEQKKLEQLLIKYPPEEVESRRWQKIADELGNRTAKQVASRVQKYFIKLTKAGIPVPGRTPNLYIYSKKSSTSRRQHPLNKHLFKPSTFMTSHEPPVYMDEDDDRSCFHSHMNTAVEDASDDESIPIMYRNLPEYKELLQFKKLKKQKLQQMQAESGFVQHVGFKCDNCGIEPIQGVRWHCQDCPPEMSLDFCDSCSDCLHETDIHKEDHQLEPIYRSETFLDRDYCVSQGTSYNYLDPNYFPANR
B2: SAP130 (protein, UniProt Q9H0E3 1-1048)
chain: MGPPRHPQAGEIEAGGAGGGRRLQVEMSSQQFPRLGAPSTGLSQAPSQIANSGSAGLINPAATVNDESGRDSEVSAREHMSSSSSLQSREEKQEPVVVRPYPQVQMLSTHHAVASATPVAVTAPPAHLTPAVPLSFSEGLMKPPPKPTMPSRPIAPAPPSTLSLPPKVPGQVTVTMESSIPQASAIPVATISGQQGHPSNLHHIMTTNVQMSIIRSNAPGPPLHIGASHLPRGAAAAAVMSSSKVTTVLRPTSQLPNAATAQPAVQHIIHQPIQSRPPVTTSNAIPPAVVATVSATRAQSPVITTTAAHATDSALSRPTLSIQHPPSAAISIQRPAQSRDVTTRITLPSHPALGTPKQQLHTMAQKTIFSTGTPVAAATVAPILATNTIPSATTAGSVSHTQAPTSTIVTMTVPSHSSHATAVTTSNIPVAKVVPQQITHTSPRIQPDYPAERSSLIPISGHRASPNPVAMETRSDNRPSVPVQFQYFLPTYPPSAYPLAAHTYTPITSSVSTIRQYPVSAQAPNSAITAQTGVGVASTVHLNPMQLMTVDASHARHIQGIQPAPISTQGIQPAPIGTPGIQPAPLGTQGIHSATPINTQGLQPAPMGTQQPQPEGKTSAVVLADGATIVANPISNPFSAAPAATTVVQTHSQSASTNAPAQGSSPRPSILRKKPATDGAKPKSEIHVSMATPVTVSMETVSNQNNDQPTIAVPPTAQQPPPTIPTMIAAASPPSQPAVALSTIPGAVPITPPITTIAAAPPPSVTVGGSLSSVLGPPVPEIKVKEEVEPMDIMRPVSAVPPLATNTVSPSLALLANNLSMPTSDLPPGASPRKKPRKQQHVISTEEGDMMETNSTDDEKSTAKSLLVKAEKRKSPPKEYIDEEGVRYVPVRPRPPITLLRHYRNPWKAAYHHFQRYSDVRVKEEKKAMLQEIANQKGVSCRAQGWKVHLCAAQLLQLTNLEHDVYERLTNLQEGIIPKKKAATDDDLHRINELIQGNMQRCKLVMDQISEARDSMLKVLDHKDRVLKLLNKNGTVKKVSKLKRKEKV

These molecules were tested against Sp1 (human (endogenous in SUDHL4)) (UniProt P08047) (assay: condition: only cells treated with etoposide plus the Chk1 inhibitor Rabusertib).
With “histone acetyltransferase KAT2A (from UniProt Q92830 1-837)” the binding was “no binding”.

Each molecule was assayed against Sp1 (human (endogenous in SUDHL4)) (UniProt P08047) (assay: affinity purification with mass spectrometry).
With IKZF1 (from UniProt Q13422 1-519) the binding was “binds”.
With IKZF2 (from UniProt Q9UKS7 1-526) the binding was “binds”.
IKZF3 (from UniProt Q9UKT9 1-509) was tested, and the binding was “binds”.
With “histone acetyltransferase KAT2A (from UniProt Q92830 1-837)” the binding was “binds”.
For B1, the binding was “binds”.
With B2 the binding was “binds”.
